# The other results are listed elsewhere or left out. These are further read-outs of the screen, such as a control signal, another cell line or another target. No call is given for them. Most of these compounds were active or inconclusive in the main read-out, so they are no random draw. Words in brackets tell the shape of the fitted curve; partial curves, single points and poor fits give uncertain potencies.
# Assay: qHTS Assay for Lipid Storage Modulators in Drosophila S3 Cells;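 for cell number change: cells counted by Cell Tracker Red CMTPX staining in the red channel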
# Conditions: BODIPY lipid droplet fluorescence, 18-24 h; for cell number change: measured here: cell count max response, cells fed with added oleic acid
# Method in brief: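 Laser-scanning cytometry quantifies lipid droplet accumulation (500–530 nm total intensity; droplet/cell object ratio) in oleic acid-fed (400 uM added) Drosophila S3 cells treated with a concentration series. 20 uM Triacsin C defined 100% inhibition.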
# [1] = measured here: lipid fluorescence (Fed channel) AC50, cells fed with added oleic acid
# [2] = measured here: cell number channel AC50, cells fed with added oleic acid
compound,measurement,setting,value
COc1ccc(-c2nnc3c4ccccc4c(C)nn23)cc1,cell number change,,1.57%
same,AC50,[1],"0.0731 µM [rising, full curve, poor fit]"
CCC(=O)N1CCc2cc(S(=O)(=O)Nc3ccc4c(c3)OCCO4)ccc21,cell number change,,-21.9%
N#Cc1c(NC(=O)CSc2ncn[nH]2)sc2c1CCCC2,AC50,[1],"29.1 µM [rising, single point]"
OCC1CCCN(C(=S)Nc2ccc(Nc3ccccc3)cc2)C1 (stereo not drawn),cell number change,,-21%
same,AC50,[2],"2.31 µM [falling, single point]"
same,AC50,[1],"3.66 µM [falling, partial curve]"
CC1=C(C(=O)Nc2cccc(C(=O)N3CCC(C(N)=O)CC3)c2)SCCO1,cell number change,,-33%
same,AC50,[2],"4.61 µM [falling, full curve]"
Cc1nc(N2CCN(c3ccccc3)CC2)[nH]c(=O)c1Cc1cccc2ccccc12,cell number change,,29.3%
Cn1c(/C=N/n2cnnc2)nc2ccccc21,cell number change,,64.1%
same,AC50,[2],"14.6 µM [rising, single point]"
O=C(O)c1ccccc1SCc1cn2ccccc2n1,cell number change,,-33.2%
same,AC50,[2],"1.84 µM [falling, partial curve, poor fit]"
same,AC50,[1],"0.116 µM [falling, full curve, poor fit]"
C/C(CC(=O)Nc1ccc([N+](=O)[O-])cc1)=N/NC(=O)C1C2CCCCC21 (stereo not drawn),cell number change,,39.1%
same,AC50,[2],"3.26 µM [rising, full curve]"
same,AC50,[1],"6.51 µM [rising, partial curve, poor fit]"
Cc1ccc(N2CC(O)Cn3c2nc2c3c(=O)[nH]c(=O)n2C)cc1 (stereo not drawn),cell number change,,21.7%
Cc1c(Cc2ccccc2)c(=O)oc2cc(OCc3ccc(C(=O)O)cc3)ccc12,cell number change,,30.3%
Cc1ccc(-n2ncc3c(NNC(=O)c4ccco4)ncnc32)cc1Cl,AC50,[1],"16.4 µM [falling, single point]"
COc1ccc(CNC(=O)CSC(=S)N2CCCC2)cc1,cell number change,,-25%
same,AC50,[2],"0.731 µM [rising, partial curve, poor fit]"
same,AC50,[1],"23.1 µM [rising, partial curve]"
COc1cc(C(=O)NCC(=O)OCn2nnc3ccccc3c2=O)cc(OC)c1OC,AC50,[2],"1.64 µM [falling, partial curve]"
COc1ccccc1CC(=O)Nc1ccc(-c2noc(COc3cccc(C)c3C)n2)cc1,cell number change,,8.67%
CCOC(=O)C1=C(C)NC(=S)NC1c1ccc(OCC(=O)N2CCCCC2)cc1 (stereo not drawn),AC50,[1],"0.517 µM [falling, partial curve]"
c1ccc2c(c1)nnn1c3ccccc3nc21,cell number change,,4.75%
same,AC50,[1],"0.651 µM [rising, full curve, poor fit]"
CCN(C(=O)COC(=O)c1cccnc1SC)C1CCS(=O)(=O)C1 (stereo not drawn),cell number change,,-12%
same,AC50,[1],"0.116 µM [falling, full curve]"
COc1ccc(NC(=O)CSc2nnc(C)n2C2CC2)cc1S(=O)(=O)N1CCOCC1,cell number change,,-0.0651%
same,AC50,[1],"1.3 µM [falling, full curve]"
COC(=O)[C@@H]1C(c2ccccc2)(c2ccccc2)[C@@]1(C)C(=O)OC,cell number change,,-7.95%
same,AC50,[1],"6.51 µM [falling, single point]"
Cc1ccc2[nH]c(C)c(/C=N/Nc3nc4ccccc4s3)c2c1,cell number change,,-30.4%
same,AC50,[2],"20.6 µM [falling, single point]"
CCOCCCn1c(SCC(=O)NCc2ccco2)nc2c(sc3ccccc32)c1=O,cell number change,,7.32%
same,AC50,[1],"0.731 µM [rising, full curve, poor fit]"
Cc1cc2c(cc1S(=O)(=O)CCC(=O)NCCc1ccccc1)OCC(=O)N2,cell number change,,12.4%
COc1ccccc1CNS(=O)(=O)c1cc(CN2C(=O)c3cccnc3C2=O)ccc1OC,cell number change,,2.67%
same,AC50,[1],"0.0731 µM [falling, single point]"
COc1cc(OC)cc(C(=O)N[C@H](C(=O)OCC(=O)Nc2ccc(C)cc2C)C(C)C)c1,cell number change,,45.2%
same,AC50,[2],"1.84 µM [rising, partial curve]"
same,AC50,[1],"0.116 µM [rising, single point]"
COc1ccc(NC(=O)CN2CCc3ccccc3C2)c([N+](=O)[O-])c1,cell number change,,-18%
Cc1ccc(S(=O)(=O)N(C)c2nonc2C)cc1,cell number change,,3.57%
O=C(c1ccc(Cl)cc1)N1CCOc2ccccc21,cell number change,,-55.2%
same,AC50,[2],"20.6 µM [falling, single point]"
same,AC50,[1],"29.1 µM [falling, single point]"
CC(C)(C)c1ccc(/C=C/C(=O)Nc2cccnc2)cc1,cell number change,,-26.4%
same,AC50,[1],"32.6 µM [falling, single point]"
CCCc1[nH]nc2c1C1(C(=O)N(CC)c3ccccc31)C(C#N)=C(N)O2 (stereo not drawn),cell number change,,16.8%
same,AC50,[2],"0.164 µM [falling, full curve, poor fit]"
Cc1ccccc1OCC(=O)OCC(=O)Nc1ccc(S(N)(=O)=O)cc1,cell number change,,-7.08%
same,AC50,[2],"6.51 µM [falling, single point]"
CC(=O)Oc1cccc(N2C(=O)c3ccccc3C2=O)c1,cell number change,,-8.52%
same,AC50,[1],"0.58 µM [falling, full curve]"
COc1cccc(C(=O)N/N=C/c2ccc(Oc3ccc([N+](=O)[O-])cn3)c(OC)c2)c1,AC50,[2],"0.146 µM [falling, full curve, poor fit]"
same,AC50,[1],"0.651 µM [rising, single point]"
CN1CC[C@]23c4ccccc4N[C@H]1[C@]21CCN(C)[C@H]3Nc2ccccc21,cell number change,,2.19%
same,AC50,[1],"0.184 µM [rising, full curve, poor fit]"
COc1cc(C(=O)NCCNC(=O)c2cnccn2)cc(OC)c1OC,cell number change,,-31.6%
same,AC50,[2],"29.1 µM [falling, single point]"
CCOc1ccc2nc(NC(=O)C(CC)Sc3nc(C)cc(=O)[nH]3)sc2c1 (stereo not drawn),cell number change,,-6.49%
O=C(NCC(O)c1ccccc1)c1ccc(Cl)c(S(=O)(=O)N2CCCCC2)c1 (stereo not drawn),cell number change,,9.28%
same,AC50,[1],"12.6 µM [falling, single point]"
O=C(NCc1ccccc1F)C1CCCN1S(=O)(=O)c1ccc(F)cc1 (stereo not drawn),cell number change,,-3.41%
same,AC50,[1],"14.6 µM [falling, partial curve]"
COc1ccc(N=C2C(=Nc3ccc(OC)cc3)N(c3ccccc3)C(=S)N2C(=O)c2ccc(Cl)cc2)cc1,cell number change,,-45.2%
same,AC50,[2],"0.58 µM [falling, full curve]"
same,AC50,[1],"0.517 µM [falling, full curve]"
CCCc1ccc(-c2cc(NC(=O)CSc3nnc(N)s3)n(-c3ccccc3)n2)cc1,cell number change,,-22.9%
same,AC50,[1],"10.3 µM [falling, partial curve]"
CCOC(=O)c1[nH]c2ccc(C)cc2c1N=CN(CC)CC,cell number change,,-14.1%
Cc1ccc(S(=O)(=O)Nc2cc(Cl)c(O)c3ncccc23)cc1,cell number change,,8.87%
same,AC50,[2],"3.55 µM [rising, single point]"
same,AC50,[1],"5.62 µM [rising, single point]"
O=C(NC1(C(F)(F)F)C(=O)Nc2c1c(=O)[nH]c(=O)n2Cc1ccccc1)c1ccco1 (stereo not drawn),cell number change,,-14.3%
same,AC50,[1],"1.16 µM [falling, full curve, poor fit]"
CC1CCCCN1C(=O)COC(=O)c1cc(Cl)c2c(c1)OCO2 (stereo not drawn),cell number change,,50%
same,AC50,[2],"0.146 µM [falling, full curve, poor fit]"
O=C(Nc1ccc(-n2cccn2)cc1)C1CCN(Cc2ccccn2)CC1,cell number change,,-21.3%
same,AC50,[1],"29.1 µM [rising, single point]"
O=C(Nc1ccccc1Cl)Nn1cnnc1,AC50,[1],"29.1 µM [rising, single point]"
COc1ccc(C(=O)CSc2nnc3n2CCCN3C(=O)Nc2ccccc2)cc1,cell number change,,-20.4%
same,AC50,[1],"13 µM [falling, partial curve, poor fit]"
CCOC(=O)c1ccc2c(c1)nc(-c1ccccn1)n2CC,cell number change,,13.4%
CCOC(=O)N1CCN(C(=O)Cc2c(C(=O)O)n(C)c3ccccc23)CC1,cell number change,,10.8%
same,AC50,[1],"0.0517 µM [rising, full curve, poor fit]"
COc1ccc(CC(=O)Nc2nncs2)cc1OC,cell number change,,8.12%
same,AC50,[1],"18.4 µM [falling, single point]"
OCC1OC(Oc2cccc3ccccc23)C(O)C(O)C1O (stereo not drawn),cell number change,,44.4%
same,AC50,[2],"29.1 µM [rising, single point]"
same,AC50,[1],"29.1 µM [rising, single point]"
COc1ccc(OC)c(C(=O)/C=C/c2ccccc2C(F)(F)F)c1,cell number change,,-4.6%
same,AC50,[1],"18.4 µM [falling, single point]"
O=C(NNc1ccccc1)C(=O)NNS(=O)(=O)c1ccc(CCCl)cc1,cell number change,,-14.5%
same,AC50,[1],"0.651 µM [falling, full curve]"
Cc1cccc(N2CC(C(=O)OCC(=O)c3c(N)n(CC(C)C)c(=O)n(C)c3=O)CC2=O)c1C (stereo not drawn),cell number change,,154%
same,AC50,[2],"29.1 µM [rising, partial curve]"
O=C(N/N=C/c1ccc(O)cc1O)c1ccc(NC(=O)C2CCCCC2)cc1,cell number change,,-51.3%
same,AC50,[2],"16.4 µM [falling, partial curve]"
same,AC50,[1],"14.6 µM [falling, partial curve]"
Cn1c(=O)cc(OCCCC(=O)N2CCN(Cc3ccc4c(c3)OCO4)CC2)c2ccccc21,cell number change,,-131%
same,AC50,[2],"29.1 µM [falling, single point]"
Cc1c(CCOC(=O)C23CC4(C)CC(C)(CC(C)(C4)C2)C3)sc[n+]1CC(=O)c1ccccc1,AC50,[1],"23.1 µM [falling, partial curve]"
O=C1OC(=O)c2c(Br)c(Br)c(Br)c(Br)c21,cell number change,,2.39%
same,AC50,[1],"0.116 µM [falling, full curve]"
Cc1c(NC(=O)c2cc3ccccc3o2)c(=O)n(-c2ccccc2)n1C,cell number change,,-4.25%
CCCCc1ccc(CC2S/C(=C(\C#N)C(=O)N3CCOCC3)N(c3ccccc3)C2=O)cc1 (stereo not drawn),AC50,[2],"2.31 µM [rising, single point]"
COc1cccc(/C=N/NC(=O)CC2C(=O)NN=C2C)c1OC (stereo not drawn),cell number change,,-24.4%
same,AC50,[2],"4.11 µM [falling, single point]"

# Pulled one by one from the entries so far:
compound,measurement,setting,value
CCC(=O)N1CCc2cc(S(=O)(=O)Nc3ccc4c(c3)OCCO4)ccc21,cell number change,,-21.9%
c1ccc2c(c1)nnn1c3ccccc3nc21,AC50,[1],"0.651 µM [rising, full curve, poor fit]"
Cc1ccc(N2CC(O)Cn3c2nc2c3c(=O)[nH]c(=O)n2C)cc1 (stereo not drawn),cell number change,,21.7%
Cc1ccccc1OCC(=O)OCC(=O)Nc1ccc(S(N)(=O)=O)cc1,cell number change,,-7.08%
O=C(c1ccc(Cl)cc1)N1CCOc2ccccc21,AC50,[2],"20.6 µM [falling, single point]"
COc1cc(OC)cc(C(=O)N[C@H](C(=O)OCC(=O)Nc2ccc(C)cc2C)C(C)C)c1,AC50,[2],"1.84 µM [rising, partial curve]"
O=C(NCC(O)c1ccccc1)c1ccc(Cl)c(S(=O)(=O)N2CCCCC2)c1 (stereo not drawn),AC50,[1],"12.6 µM [falling, single point]"

# — PubChem BioAssay AID2685 (National Center for Advancing Translational Sciences (NCATS), 2010)
